Publication PMC9691931
These are yes or no findings as the source states them, for the method shown. Binding seen in cells or lysates may run through a third protein. Some binding calls cover weakened binding; strength is not graded here.

By UniProt entry, the sequences of proteins in these tests, tags left out. Where a name states a change or a piece, a line headed by the entry shows the natural chain unless it says otherwise. Chains listed by the source or under a name are the forms on record and can include a tag or linker.
CaVα2δ1 auxiliary subunit (P54289, form named): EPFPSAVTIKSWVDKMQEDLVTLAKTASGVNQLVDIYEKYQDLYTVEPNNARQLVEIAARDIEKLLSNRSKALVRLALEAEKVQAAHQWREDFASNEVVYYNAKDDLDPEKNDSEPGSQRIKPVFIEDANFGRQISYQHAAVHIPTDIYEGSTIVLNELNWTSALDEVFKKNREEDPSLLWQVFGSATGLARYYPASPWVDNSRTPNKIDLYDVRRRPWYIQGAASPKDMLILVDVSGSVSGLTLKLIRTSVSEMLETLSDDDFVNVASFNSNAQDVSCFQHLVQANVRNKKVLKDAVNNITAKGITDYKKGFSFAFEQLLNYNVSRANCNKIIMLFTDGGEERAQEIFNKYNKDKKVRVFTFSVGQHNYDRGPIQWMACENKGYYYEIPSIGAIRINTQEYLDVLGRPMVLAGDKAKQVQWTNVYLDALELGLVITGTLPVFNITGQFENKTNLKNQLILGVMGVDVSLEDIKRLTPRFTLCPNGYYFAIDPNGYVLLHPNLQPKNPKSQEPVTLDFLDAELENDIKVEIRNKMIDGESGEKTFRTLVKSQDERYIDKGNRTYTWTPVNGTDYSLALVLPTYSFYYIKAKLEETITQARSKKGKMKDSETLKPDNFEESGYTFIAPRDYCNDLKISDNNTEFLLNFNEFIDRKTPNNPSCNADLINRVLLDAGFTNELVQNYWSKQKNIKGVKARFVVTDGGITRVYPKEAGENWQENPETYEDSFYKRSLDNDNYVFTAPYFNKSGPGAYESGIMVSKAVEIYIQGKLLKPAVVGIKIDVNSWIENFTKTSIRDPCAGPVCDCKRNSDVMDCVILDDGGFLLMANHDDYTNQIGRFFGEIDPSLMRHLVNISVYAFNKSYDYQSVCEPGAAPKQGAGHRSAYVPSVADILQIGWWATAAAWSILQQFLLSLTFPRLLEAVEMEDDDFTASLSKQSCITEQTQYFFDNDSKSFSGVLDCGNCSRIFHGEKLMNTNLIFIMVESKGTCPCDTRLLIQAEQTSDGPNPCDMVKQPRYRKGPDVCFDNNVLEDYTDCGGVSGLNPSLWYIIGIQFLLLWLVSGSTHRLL
UniProt P15381: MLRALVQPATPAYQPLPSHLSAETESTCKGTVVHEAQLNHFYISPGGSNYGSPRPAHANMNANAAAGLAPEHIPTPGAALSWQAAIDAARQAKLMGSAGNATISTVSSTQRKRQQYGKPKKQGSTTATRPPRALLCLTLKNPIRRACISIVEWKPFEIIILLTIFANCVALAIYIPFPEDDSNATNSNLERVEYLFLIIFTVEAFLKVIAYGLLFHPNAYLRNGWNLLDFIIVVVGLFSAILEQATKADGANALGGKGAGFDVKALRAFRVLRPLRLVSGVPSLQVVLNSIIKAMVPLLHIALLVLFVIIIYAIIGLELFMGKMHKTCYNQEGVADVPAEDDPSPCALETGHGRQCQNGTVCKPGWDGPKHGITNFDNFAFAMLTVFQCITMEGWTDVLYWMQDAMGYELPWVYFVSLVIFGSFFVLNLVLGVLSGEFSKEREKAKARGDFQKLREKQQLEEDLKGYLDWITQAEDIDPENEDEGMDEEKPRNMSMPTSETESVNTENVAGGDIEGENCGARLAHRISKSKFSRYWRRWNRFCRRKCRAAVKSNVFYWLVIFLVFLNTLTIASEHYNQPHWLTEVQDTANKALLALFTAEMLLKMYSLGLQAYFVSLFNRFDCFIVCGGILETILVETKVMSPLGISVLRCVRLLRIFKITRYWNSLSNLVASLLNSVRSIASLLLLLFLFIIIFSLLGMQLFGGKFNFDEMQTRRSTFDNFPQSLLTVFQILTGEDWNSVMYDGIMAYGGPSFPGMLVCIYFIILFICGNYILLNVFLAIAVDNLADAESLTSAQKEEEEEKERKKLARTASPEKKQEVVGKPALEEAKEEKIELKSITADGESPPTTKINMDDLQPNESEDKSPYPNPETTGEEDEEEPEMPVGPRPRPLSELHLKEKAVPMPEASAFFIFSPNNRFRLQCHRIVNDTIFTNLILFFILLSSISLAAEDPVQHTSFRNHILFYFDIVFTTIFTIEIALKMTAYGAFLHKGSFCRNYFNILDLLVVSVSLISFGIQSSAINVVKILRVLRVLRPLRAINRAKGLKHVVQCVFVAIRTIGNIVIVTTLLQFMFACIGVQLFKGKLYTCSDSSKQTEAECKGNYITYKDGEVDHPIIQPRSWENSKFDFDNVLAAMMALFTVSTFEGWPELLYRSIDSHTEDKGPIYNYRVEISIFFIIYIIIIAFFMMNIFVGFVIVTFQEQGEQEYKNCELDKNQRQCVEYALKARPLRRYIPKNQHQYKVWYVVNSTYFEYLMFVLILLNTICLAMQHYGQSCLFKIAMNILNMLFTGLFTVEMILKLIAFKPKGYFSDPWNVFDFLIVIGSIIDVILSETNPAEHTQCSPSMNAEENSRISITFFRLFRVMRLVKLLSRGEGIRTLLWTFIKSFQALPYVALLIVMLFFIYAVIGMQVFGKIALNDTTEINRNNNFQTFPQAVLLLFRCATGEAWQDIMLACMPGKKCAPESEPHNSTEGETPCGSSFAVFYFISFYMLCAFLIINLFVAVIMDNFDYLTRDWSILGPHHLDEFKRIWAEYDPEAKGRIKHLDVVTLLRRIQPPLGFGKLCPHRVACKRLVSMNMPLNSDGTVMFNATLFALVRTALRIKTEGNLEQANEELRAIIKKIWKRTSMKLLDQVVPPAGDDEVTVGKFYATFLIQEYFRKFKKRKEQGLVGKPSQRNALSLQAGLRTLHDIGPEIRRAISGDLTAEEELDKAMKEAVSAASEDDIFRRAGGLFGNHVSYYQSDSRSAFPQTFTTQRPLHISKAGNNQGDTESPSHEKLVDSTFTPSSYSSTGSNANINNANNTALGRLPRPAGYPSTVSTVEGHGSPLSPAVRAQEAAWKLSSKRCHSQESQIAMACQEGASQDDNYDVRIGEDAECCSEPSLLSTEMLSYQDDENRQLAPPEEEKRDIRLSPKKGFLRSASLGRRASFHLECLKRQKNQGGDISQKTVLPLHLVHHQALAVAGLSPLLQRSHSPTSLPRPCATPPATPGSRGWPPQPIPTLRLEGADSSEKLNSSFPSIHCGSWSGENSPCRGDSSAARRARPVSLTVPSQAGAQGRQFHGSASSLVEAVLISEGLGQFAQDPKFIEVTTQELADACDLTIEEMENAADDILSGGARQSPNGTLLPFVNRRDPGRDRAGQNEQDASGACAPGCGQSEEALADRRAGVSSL

Assays:
[1] = target: CaVα2δ1 auxiliary subunit (UniProt P54289); assay: co-IP; HEKT cells co-transfected with CaV1.2 WT or G449R, CaVα2δ1 and cMyc-tagged CaVβ3 or CaVβ2a; CaVβ as bait; lysates (20 mM Na-Mops pH 7.4, 300 mM NaCl, 1% digitonin or 0.5% CHAPS) incubated overnight with anti-cMyc magnetic beads; Western blot
cMyc-tagged CaVβ3 = cMyc-tagged CaVβ3 (UniProt P54287); assay: as above

Substance | binding [1] | binding (cMyc-tagged CaVβ3)
CaVα1C pore-forming subunit of the L-type CaV1.2 channel, WT (rabbit clone) (from UniProt P15381 1-2171) | binds | binds
CaVα1C pore-forming subunit of the L-type CaV1.2 channel, G449R (rabbit clone numbering; human G419R) (from UniProt P15381 1-2171) | binds | binds
